Laboratory results as given in publication PMC7021685.
Results are given in words; binding and its absence hold for the method and conditions named. Binding seen in cells or lysates may run through a third protein. Some results given as binding are weak or reduced against the parent protein; the word gives no strength. Blank lines part the entries; values can stand above or below the molecule they belong to.

Chains of the proteins cited; added tags and fusions are not shown.
UniProt P98170: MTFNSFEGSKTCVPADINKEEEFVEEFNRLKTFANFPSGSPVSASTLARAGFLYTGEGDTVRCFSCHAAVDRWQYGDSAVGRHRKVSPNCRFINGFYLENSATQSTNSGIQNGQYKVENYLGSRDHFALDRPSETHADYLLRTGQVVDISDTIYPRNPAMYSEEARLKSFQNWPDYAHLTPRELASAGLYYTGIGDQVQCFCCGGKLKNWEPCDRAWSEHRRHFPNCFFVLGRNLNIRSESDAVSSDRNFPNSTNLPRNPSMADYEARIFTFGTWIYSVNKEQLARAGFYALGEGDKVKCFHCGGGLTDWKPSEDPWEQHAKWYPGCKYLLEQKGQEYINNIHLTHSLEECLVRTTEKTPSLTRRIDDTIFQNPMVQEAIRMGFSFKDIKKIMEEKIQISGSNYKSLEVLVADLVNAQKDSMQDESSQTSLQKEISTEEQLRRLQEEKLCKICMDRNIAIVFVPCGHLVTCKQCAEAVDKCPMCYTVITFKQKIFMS
UniProt P00441: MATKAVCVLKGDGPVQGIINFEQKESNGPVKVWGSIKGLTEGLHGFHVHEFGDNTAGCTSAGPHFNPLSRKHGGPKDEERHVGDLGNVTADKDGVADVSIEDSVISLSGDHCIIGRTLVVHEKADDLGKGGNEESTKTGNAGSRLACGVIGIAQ

What was measured:
[1] = molecular target: X-linked inhibitor of apoptosis (XIAP) (human (endogenous in Ls174t)) (UniProt P98170); assay: co-IP; lysates of the STEAP4-inducible Ls174t clone without STEAP4 induction; lysis buffer 1% Triton X-100, 50 mM Tris-HCl pH 7.4, 150 mM NaCl; antibody plus protein A/G Sepharose beads overnight at 4 °C; western blot
[2] = molecular target: X-linked inhibitor of apoptosis (XIAP) (human (endogenous in Ls174t)) (UniProt P98170); assay: co-IP; lysates of the STEAP4-inducible Ls174t clone with STEAP4 overexpression (doxycycline); lysis buffer 1% Triton X-100, 50 mM Tris-HCl pH 7.4, 150 mM NaCl; antibody plus protein A/G Sepharose beads overnight at 4 °C; western blot

binding [1]: binds
Molecule: superoxide dismutase 1 (SOD1) (from UniProt P00441 1-154)
binding [2]: no binding (condition: with STEAP4 overexpression)

binding [1]: binds
B1: copper chaperone for superoxide dismutase (CCS) (protein, UniProt O14618 1-274)
chain: MASDSGNQGTLCTLEFAVQMTCQSCVDAVRKSLQGVAGVQDVEVHLEDQMVLVHTTLPSQEVQALLEGTGRQAVLKGMGSGQLQNLGAAVAILGGPGTVQGVVRFLQLTPERCLIEGTIDGLEPGLHGLHVHQYGDLTNNCNSCGNHFNPDGASHGGPQDSDRHRGDLGNVRADADGRAIFRMEDEQLKVWDVIGRSLIIDEGEDDLGRGGHPLSKITGNSGERLACGIIARSAGLFQNPKQICSCDGLTIWEERGRPIAGKGRKESAQPPAHL
binding [2]: no binding (condition: with STEAP4 overexpression)
